Results reported in paper PMC9509381.
No constants are given. Whether binding was seen depends on the method and setting. In cells and extracts the contact can be indirect. Some binding calls cover weakened binding; strength is not graded here.

The chains behind the UniProt entries cited, without tags or fusion partners.
UniProt Q9Y265: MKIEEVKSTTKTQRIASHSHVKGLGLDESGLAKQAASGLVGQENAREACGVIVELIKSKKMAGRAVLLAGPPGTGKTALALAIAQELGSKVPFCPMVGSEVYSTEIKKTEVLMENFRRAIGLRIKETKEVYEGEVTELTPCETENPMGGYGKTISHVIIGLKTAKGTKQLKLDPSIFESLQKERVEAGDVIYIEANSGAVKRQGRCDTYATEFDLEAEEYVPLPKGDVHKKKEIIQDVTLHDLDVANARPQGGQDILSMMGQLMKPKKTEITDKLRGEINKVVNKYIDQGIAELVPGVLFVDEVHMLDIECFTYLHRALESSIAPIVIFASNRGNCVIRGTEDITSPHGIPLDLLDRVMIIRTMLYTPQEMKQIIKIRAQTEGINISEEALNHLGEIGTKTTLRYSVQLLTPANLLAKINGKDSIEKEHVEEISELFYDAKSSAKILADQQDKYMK
UniProt Q9UJU2: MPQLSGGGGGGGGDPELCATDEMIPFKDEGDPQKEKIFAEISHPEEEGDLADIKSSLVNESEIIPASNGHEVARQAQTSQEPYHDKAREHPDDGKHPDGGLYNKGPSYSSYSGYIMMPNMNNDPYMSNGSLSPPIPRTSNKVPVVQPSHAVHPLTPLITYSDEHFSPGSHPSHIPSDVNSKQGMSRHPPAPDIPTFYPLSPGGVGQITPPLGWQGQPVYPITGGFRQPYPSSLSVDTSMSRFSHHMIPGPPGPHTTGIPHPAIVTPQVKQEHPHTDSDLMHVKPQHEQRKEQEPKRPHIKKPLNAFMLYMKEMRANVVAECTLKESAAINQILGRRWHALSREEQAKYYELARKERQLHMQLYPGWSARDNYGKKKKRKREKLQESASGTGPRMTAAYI

Biological target: Pontin (flag-tagged) (human) (UniProt Q9Y265)
Experiment: co-IP; cell extracts immunoprecipitated with 2 ug mouse anti-flag tag antibody for 4-6 h, then protein A/G agarose beads overnight; washed, SDS-PAGE, immunoblot; U87MG cells

binding	Substance
binds	HA-tagged LEF1 (from UniProt Q9UJU2 1-399)
binds	endogenous LEF1 (from UniProt Q9UJU2 1-399)
